# In US12527732B2, “Biobased polyglyceryl esters and compositions comprising the same” (Inolex Investment Corporation, priority 2021, dated 2026):
# Some of these results come from one statement about several compounds together.
# Assay: Aqueous Solution Turbidity (AST) / water solubility and clarity of 5% and 10% aqueous solutions
# Type: physicochemical
# Settings: 5% and 10% aqueous solutions in deionized water
# Protocol: Measurement of Turbidity via Nephelometric Turbidimetry. Clarity of solutions and formulations is reported as Aqueous Solution Turbidity (AST) or Formulation Turbidity (FT) measured in nephelometric turbidity units (NTU). Turbidity values were determined on an HF Scientific Micro 100 Benchtop Turbidity Meter operating at room temperature (23° C.±2° C.). Aqueous Solution Turbidity is an inherent property of a PGE composition when measured as specified at 5% in deionized water at 23±2° C.
substance,measurement,value
Heptyl Glucoside [CE4],water solubility and clarity,clear solutions with low turbidity values
